Experimental data taken from PubChem BioAssay AID256 (DTP/NCI, 2004).
The list is a part of this screen's results and no random one: it covers a few groups of compounds. Not every dose and run of a compound is shown. T/C is the treated group as % of the vehicle group. Some doses have a count of surviving animals in place of a T/C: the source files T/C as zero there, which appears to mark a toxic dose or a test without result, not a measured value. Some doses without a T/C left all or most animals alive at the check, yet need not have been tolerated: survival well below the control is almost never listed, so the zero probably covers shortened survival too. Counts of survivors are from the toxicity check (mostly the fifth day) where no day follows; animals may have died later. Schedules are NCI's codes, read here as Q, the interval in days (D) or hours (H), X, the number of doses. Where survival is the endpoint, this PubChem deposit counts one and a half times the control or more as active, and values a quarter to a half above the control carry no call in these data; other NCI protocols may use other cut-offs. Some entries hold several experiments; the values are given in rising order. Some schedules carry Z or #; the key to these is not given. Some T/C values are marked as having no survivor count here; that says nothing about deaths at the dose. Some T/C values carry the count of animals alive at the toxicity check (mostly the fifth day); where neither a count nor a note follows, no animal had died by that day.

Test system: CD2F1 mice, L1210 leukemia ip, survival T/C
Test: NCI In Vivo Anticancer Drug Screen. Data for tumor model L1210 Leukemia (intraperitoneal) in CD2F1 (CDF1) mice
Details: T/C endpoint: mean survival time, higher T/C = longer survival
Method in brief: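 In this screen, transplantable tumors were grown in mice given either the compound or its vehicle. Results were expressed as the treated measurement relative to the control measurement.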

[1] = dose: 6.25 mg/kg/injection, schedule: Q01DX009 (ip), vehicle: Klucel (hydroxypropylcellulose) (HPC)
[2] = dose: 12.5 mg/kg/injection, schedule: Q01DX009 (ip), vehicle: Klucel (hydroxypropylcellulose) (HPC)
[3] = dose: 25.0 mg/kg/injection, schedule: Q01DX009 (ip), vehicle: Klucel (hydroxypropylcellulose) (HPC)
[4] = dose: 50.0 mg/kg/injection, schedule: Q01DX009 (ip), vehicle: Klucel (hydroxypropylcellulose) (HPC)
[5] = dose: 100.0 mg/kg/injection, schedule: Q01DX009 (ip), vehicle: Klucel (hydroxypropylcellulose) (HPC)
[6] = dose: 200.0 mg/kg/injection, schedule: Q01DX009 (ip), vehicle: Klucel (hydroxypropylcellulose) (HPC)
[7] = dose: 100.0 mg/kg/injection, schedule: Q01DX009 (ip), vehicle: saline with Tween-80
[8] = dose: 200.0 mg/kg/injection, schedule: Q01DX009 (ip), vehicle: saline with Tween-80
[9] = dose: 100.0 mg/kg/injection, schedule: Q04DX003 (ip), vehicle: Klucel (hydroxypropylcellulose) (HPC)

In the case of `COC(=O)/C=C/N(CCF)CCCl`, the T/C (dose: 1.0 mg/kg/injection, schedule: Q01DX Z (ip), vehicle: saline) is reported as 102 % of control, the T/C (dose: 3.0 mg/kg/injection, schedule: Q01DX Z (ip), vehicle: saline) is reported as 102 % of control and the T/C (dose: 10.0 mg/kg/injection, schedule: Q01DX Z (ip), vehicle: saline) is reported as 123 % of control.
In the case of `COc1nccc2ccccc12.O=[N+]([O-])c1cc([N+](=O)[O-])c(O)c([N+](=O)[O-])c1`, the T/C (dose: 100.0 mg/kg/injection, schedule: Q04DX003 (ip), vehicle: saline) is reported as 97 % of control [survivor count not shown], the T/C (dose: 200.0 mg/kg/injection, schedule: Q04DX003 (ip), vehicle: saline) is reported as 93 % of control [survivor count not shown] and the T/C (dose: 400.0 mg/kg/injection, schedule: Q04DX003 (ip), vehicle: saline) is reported as 97 % of control [survivor count not shown].
With `O=P1(N(CCCl)CCCl)NCC(Br)CO1` (stereo unspecified) the T/C (dose: 62.5 mg/kg/injection, schedule: Q01DX001 (ip), vehicle: water) was 110 % of control, the T/C (dose: 125.0 mg/kg/injection, schedule: Q01DX001 (ip), vehicle: water) was 114 % of control and the T/C (dose: 250.0 mg/kg/injection, schedule: Q01DX001 (ip), vehicle: water) was 110 % of control. The T/C (dose: 500.0 mg/kg/injection, schedule: Q01DX001 (ip), vehicle: water) was 146 % of control.
`CCCCOc1ccc(N(CCCl)CCCl)cc1` was tested, and the T/C [1] was 105 and 110 % of control, the T/C [2] was 105 and 113 % of control and the T/C [3] was 110 and 116 % of control. For the same molecule, the T/C [4] was 128 and 137 % of control, the T/C [5] was 97 % of control and the survivor count [5] was 4 of 6. The survivor count [6] was 2 of 8.
For `ClC(Cl)(Cl)C1SCCCS1`, the T/C (dose: 50.0 mg/kg/injection, schedule: Q01DX009 (ip), vehicle: saline with Tween-80) was 94 % of control, the T/C [7] was 97 % of control and the T/C [8] was 102 % of control.
In the case of `CC(C)(CO)COP(N)(=O)N(CCCl)CCCl` (stereo unspecified), the T/C (dose: 25.0 mg/kg/injection, schedule: Q01DX001 (ip), vehicle: DMSO) is reported as 98 % of control, the T/C (dose: 50.0 mg/kg/injection, schedule: Q01DX001 (ip), vehicle: DMSO) is reported as 96 % of control and the T/C (dose: 100.0 mg/kg/injection, schedule: Q01DX001 (ip), vehicle: DMSO) is reported as 96 % of control. The T/C (dose: 200.0 mg/kg/injection, schedule: Q01DX001 (ip), vehicle: DMSO) was 104 % of control, the T/C (dose: 266.0 mg/kg/injection, schedule: Q01DX001 (ip), vehicle: DMSO) was 107 % of control and the T/C (dose: 400.0 mg/kg/injection, schedule: Q01DX001 (ip), vehicle: DMSO, evaluated on day 25) was 114 % of control. The T/C (dose: 400.0 mg/kg/injection, schedule: Q01DX001 (ip), vehicle: DMSO, evaluated on day 60) was 120 % of control, the T/C (dose: 600.0 mg/kg/injection, schedule: Q01DX001 (ip), vehicle: DMSO) was 104 % of control and the T/C (dose: 900.0 mg/kg/injection, schedule: Q01DX001 (ip), vehicle: DMSO) was 114 % of control [4 of 6 alive].
In the case of `Cc1ccc([N+](=O)[O-])cc1NC(=O)NNc1c([N+](=O)[O-])cc(C(F)(F)F)cc1[N+](=O)[O-]`, the T/C [7] is reported as 92 % of control, the T/C [8] is reported as 92 % of control [5 of 6 alive] and the T/C (dose: 400.0 mg/kg/injection, schedule: Q01DX009 (ip), vehicle: saline with Tween-80) is reported as 97 % of control [4 of 6 alive].
For `COc1cc(OC)c(Nc2c([N+](=O)[O-])cc([N+](=O)[O-])cc2[N+](=O)[O-])cc1Cl`, the T/C [9] was 105 % of control [5 of 6 alive], the T/C (dose: 200.0 mg/kg/injection, schedule: Q04DX003 (ip), vehicle: Klucel (hydroxypropylcellulose) (HPC)) was 100 % of control and the T/C (dose: 400.0 mg/kg/injection, schedule: Q04DX003 (ip), vehicle: Klucel (hydroxypropylcellulose) (HPC)) was 96 % of control.
For `CC(C)N=C(N)C(N)=NC(C)C.O=[N+]([O-])c1cc([N+](=O)[O-])c(O)c([N+](=O)[O-])c1`, the T/C (dose: 50.0 mg/kg/injection, schedule: Q04DX002 (ip), vehicle: saline with Tween-80) was 88 % of control [survivor count not shown], the T/C (dose: 100.0 mg/kg/injection, schedule: Q04DX002 (ip), vehicle: saline with Tween-80) was 100 % of control [survivor count not shown] and the T/C (dose: 200.0 mg/kg/injection, schedule: Q04DX002 (ip), vehicle: saline with Tween-80) was 96 % of control [survivor count not shown].
With `O=C(O)c1cccc(N(CCCl)CCCl)c1` the T/C [1] was 104 % of control, the T/C [2] was 110 % of control and the T/C (dose: 25.0 mg/kg/injection, schedule: Q01DX001 (ip), vehicle: Klucel (hydroxypropylcellulose) (HPC)) was 117 % of control. For the same molecule, the T/C [3] was 109 % of control, the T/C (dose: 25.0 mg/kg/injection, schedule: Q04DX003 (ip), vehicle: Klucel (hydroxypropylcellulose) (HPC)) was 102 and 112 % of control and the T/C (dose: 25.0 mg/kg/injection, schedule: Q08DX002 (ip), vehicle: Klucel (hydroxypropylcellulose) (HPC)) was 98 % of control. For the same molecule, the T/C (dose: 50.0 mg/kg/injection, schedule: Q01DX001 (ip), vehicle: Klucel (hydroxypropylcellulose) (HPC)) was 102 % of control, the T/C [4] was 139 and 146 % of control and the T/C (dose: 50.0 mg/kg/injection, schedule: Q04DX003 (ip), vehicle: Klucel (hydroxypropylcellulose) (HPC)) was 118 and 129 % of control. The T/C (dose: 50.0 mg/kg/injection, schedule: Q08DX002 (ip), vehicle: Klucel (hydroxypropylcellulose) (HPC)) was 101 % of control, the T/C (dose: 100.0 mg/kg/injection, schedule: Q01DX001 (ip), vehicle: Klucel (hydroxypropylcellulose) (HPC)) was 108 % of control and the T/C [5] was 152 % of control. For the same molecule, the survivor count [5] was 3 of 6, the T/C [9] was 118 and 124 % of control and the T/C (dose: 100.0 mg/kg/injection, schedule: Q08DX002 (ip), vehicle: Klucel (hydroxypropylcellulose) (HPC)) was 97 % of control. The survivor count [6] was 0 of 6.
In the case of `O=P1(N(CCCl)CCCl)Nc2ccccc2CO1` (stereo unspecified), the T/C (dose: 25.0 mg/kg/injection, schedule: Q01DX009 (ip), vehicle: water) is reported as 89 % of control, the T/C (dose: 31.8 mg/kg/injection, schedule: Q01DX001 (ip), vehicle: other) is reported as 104 % of control and the survivor count (dose: 50.0 mg/kg/injection, schedule: Q01DX009 (ip), vehicle: water) is reported as 6 of 6. The T/C (dose: 62.5 mg/kg/injection, schedule: Q01DX001 (ip), vehicle: other) was 96 % of control, the survivor count (dose: 100.0 mg/kg/injection, schedule: Q01DX009 (ip), vehicle: water) was 6 of 6 and the T/C (dose: 125.0 mg/kg/injection, schedule: Q01DX001 (ip), vehicle: other) was 100 % of control. The survivor count (dose: 200.0 mg/kg/injection, schedule: Q01DX009 (ip), vehicle: water) was 6 of 6, the T/C (dose: 250.0 mg/kg/injection, schedule: Q01DX001 (ip), vehicle: other) was 87 % of control and the T/C (dose: 500.0 mg/kg/injection, schedule: Q01DX001 (ip), vehicle: other) was 90 % of control.
In the case of `COc1ccc(C(O)(C(=O)OCCN2CCCCC2)c2ccc(OC)cc2)cc1`, the T/C (dose: 75.0 mg/kg/injection, schedule: Q01DX001 (ip), vehicle: saline) is reported as 98 % of control.
`C#CCOP(N)(=O)N(CCCl)CCCl` (stereo unspecified) was tested, and the T/C (dose: 15.63 mg/kg/injection, schedule: Q01DX001 (ip), vehicle: DMSO) was 98 % of control, the T/C (dose: 31.25 mg/kg/injection, schedule: Q01DX001 (ip), vehicle: DMSO) was 98 % of control and the T/C (dose: 62.5 mg/kg/injection, schedule: Q01DX001 (ip), vehicle: DMSO) was 97 % of control. The T/C (dose: 125.0 mg/kg/injection, schedule: Q01DX001 (ip), vehicle: DMSO) was 101 % of control, the T/C (dose: 250.0 mg/kg/injection, schedule: Q01DX001 (ip), vehicle: DMSO) was 98 % of control and the T/C (dose: 500.0 mg/kg/injection, schedule: Q01DX001 (ip), vehicle: DMSO) was 103 % of control. The survivor count (dose: 1000.0 mg/kg/injection, schedule: Q01DX001 (ip), vehicle: DMSO) was 0 of 6.
